From US20060040945A1, “Annellated pyrrole compounds as proton pump inhibitors for treating ulcer” (MERCKLE GMBH, priority 2002, published 2006)
For at least one compound, name, drawing or mass did not settle the structure.

Columns and labels:
[1] = tested on: human gastric adenocarcinoma (AGS) cells; assay: IL-8 secretion by AGS cells into culture medium (ELISA); assay type: cell-based
gastric H,K-ATPase = conditions: cited from earlier work

For `COC1(c2cc(F)cc(OCc3ccc4c(ccc(=O)n4C)c3)c2)CCOCC1` [ZD-2138], the “effect on IL-1β-stimulated IL-8 secretion” value [1] was “without effect”.

For `COc1ccc2[nH]c([S+]([O-])Cc3ncc(C)c(OC)c3C)nc2c1` (stereo not drawn) [omeprazole], the “inhibitory effect on gastric H,K-ATPase” value (gastric H,K-ATPase; at neutral or higher pH) is given as “no inhibitory effects” and the IC50 (gastric H,K-ATPase; depending on the conditions of the assay (refs 3,4,5), units given in the value, read-out: published IC50, gastric proton pump activity (range)) is given as 0.47 to 36 µM.
